# Laboratory results as given in the supplement of paper PMC8728848.
# Some of the results follow.
# Assays:
# Test in all cases: glycan array binding signal (z-score within array); higher = stronger binding
# Conditions in all cases: glycan notation: IUPAC condensed, linker removed
# Gal(a1-3)Gal(b1-3)GlcNAc = target: Gal(a1-3)Gal(b1-3)GlcNAc
# Summary of the method: (§1)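 Arrays were curated from the Consortium for Functional Glycomics database, 3228 in total, and kept only where the protein sequence was available. Binding is expressed as a within-array Z-score. This score was averaged across arrays of the same protein sequence at different concentrations or buffers and across linkers, and negative values can be read as non-binding.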
# [1] = target: Gal(a1-3)Gal(b1-3)GlcNAc(b1-2)Man(a1-3)[Gal(a1-3)Gal(b1-3)GlcNAc(b1-2)Man(a1-6)]Man(b1-4)GlcNAc(b1-4)GlcNAc
# Summary of the method: as §1
# [2] = target: Gal(a1-3)Gal(b1-3)[Fuc(a1-4)]GlcNAc(b1-2)Man(a1-3)[Gal(a1-3)Gal(b1-3)[Fuc(a1-4)]GlcNAc(b1-2)Man(a1-6)]Man(b1-4)GlcNAc(b1-4)GlcNAc
# Summary of the method: as §1
# Gal(a1-3)Gal(b1-4)Glc = target: Gal(a1-3)Gal(b1-4)Glc
# Summary of the method: as §1
# Gal(a1-3)Gal(b1-4)GlcNAc = target: Gal(a1-3)Gal(b1-4)GlcNAc
# Summary of the method: as §1
# [3] = target: Gal(a1-3)Gal(b1-4)GlcNAc(b1-3)GalNAc
# Summary of the method: as §1
# [4] = target: Gal(a1-3)Gal(b1-4)[Fuc(a1-3)]GlcNAc
# Summary of the method: as §1
# [5] = target: Gal(a1-3)Gal(b1-4)[Fuc(a1-3)]GlcNAc(b1-2)Man(a1-3)[Gal(a1-3)Gal(b1-4)[Fuc(a1-3)]GlcNAc(b1-2)Man(a1-6)]Man(b1-4)GlcNAc(b1-4)GlcNAc
# Summary of the method: as §1
# Gal(a1-3)GalNAc = target: Gal(a1-3)GalNAc
# Summary of the method: as §1
# [6] = target: Gal(a1-3)[Gal(a1-4)]Gal(b1-4)GlcNAc
# Summary of the method: as §1
# [7] = target: Gal(a1-4)Gal(b1-3)GlcNAc(b1-2)Man(a1-3)[Gal(a1-4)Gal(b1-3)GlcNAc(b1-2)Man(a1-6)]Man(b1-4)GlcNAc(b1-4)GlcNAc
# Summary of the method: as §1
# Gal(a1-4)Gal(b1-4)Glc = target: Gal(a1-4)Gal(b1-4)Glc
# Summary of the method: as §1
# Gal(a1-4)Gal(b1-4)GlcNAc = target: Gal(a1-4)Gal(b1-4)GlcNAc
# Summary of the method: as §1
# [8] = target: Gal(a1-4)Gal(b1-4)GlcNAc(b1-2)Man(a1-3)[Gal(a1-4)Gal(b1-4)GlcNAc(b1-2)Man(a1-6)]Man(b1-4)GlcNAc(b1-4)GlcNAc
# Summary of the method: as §1
# [9] = target: Gal(a1-4)Gal(b1-4)GlcNAc(b1-3)Gal(b1-4)Glc
# Summary of the method: as §1
# Gal(a1-4)GlcNAc = target: Gal(a1-4)GlcNAc
# Summary of the method: as §1
# Gal(a1-6)Glc = target: Gal(a1-6)Glc
# Summary of the method: as §1
# Gal(b1-2)Gal = target: Gal(b1-2)Gal
# Summary of the method: as §1
# Gal(b1-3)Gal = target: Gal(b1-3)Gal
# Summary of the method: as §1
# Gal(b1-3)Gal(b1-4)GlcNAc = target: Gal(b1-3)Gal(b1-4)GlcNAc
# Summary of the method: as §1
# [10] = target: Gal(b1-3)Gal(b1-4)GlcNAc(b1-2)Man(a1-3)[Gal(b1-3)Gal(b1-4)GlcNAc(b1-2)Man(a1-6)]Man(b1-4)GlcNAc(b1-4)GlcNAc
# Summary of the method: as §1
# Gal(b1-3)GalNAc = target: Gal(b1-3)GalNAc
# Summary of the method: as §1
# [11] = target: Gal(b1-3)GalNAc(a1-3)[Fuc(a1-2)]Gal(b1-4)Glc
# Summary of the method: as §1
# [12] = target: Gal(b1-3)GalNAc(a1-3)[Fuc(a1-2)]Gal(b1-4)GlcNAc
# Summary of the method: as §1
# [13] = target: Gal(b1-3)GalNAc(b1-3)Gal(a1-4)Gal(b1-4)Glc
# Summary of the method: as §1
# [14] = target: Gal(b1-3)GalNAc(b1-4)Gal(b1-4)Glc
# Summary of the method: as §1
# [15] = target: Gal(b1-3)GalNAc(b1-4)[Neu5Ac(a2-3)]Gal(b1-4)Glc
# Summary of the method: as §1
# Gal(b1-3)GlcNAc = target: Gal(b1-3)GlcNAc
# Summary of the method: as §1
# [16] = target: Gal(b1-3)GlcNAc(a1-6)Gal(b1-4)GlcNAc
# Summary of the method: as §1
# [17] = target: Gal(b1-3)GlcNAc(b1-2)Man(a1-3)[Gal(b1-3)GlcNAc(b1-2)Man(a1-6)]Man(b1-4)GlcNAc(b1-4)GlcNAc
# Summary of the method: as §1
# [18] = target: Gal(b1-3)GlcNAc(b1-2)Man(a1-3)[Gal(b1-3)GlcNAc(b1-2)Man(a1-6)]Man(b1-4)GlcNAc(b1-4)[Fuc(a1-6)]GlcNAc
# Summary of the method: as §1
# [19] = target: Gal(b1-3)GlcNAc(b1-3)Gal(b1-3)GlcNAc
# Summary of the method: as §1
# [20] = target: Gal(b1-3)GlcNAc(b1-3)Gal(b1-4)Glc
# Summary of the method: as §1
# [21] = target: Gal(b1-3)GlcNAc(b1-3)Gal(b1-4)GlcNAc
# Summary of the method: as §1
# [22] = target: Gal(b1-3)GlcNAc(b1-3)Gal(b1-4)GlcNAc(b1-6)[Gal(b1-3)GlcNAc(b1-3)]Gal(b1-4)Glc
# Summary of the method: as §1
# [23] = target: Gal(b1-3)GlcNAc(b1-3)Gal(b1-4)[Fuc(a1-3)]GlcNAc(b1-6)[Gal(b1-3)GlcNAc(b1-3)]Gal(b1-4)Glc
# Summary of the method: as §1
# [24] = target: Gal(b1-3)GlcNAc(b1-3)GalNAc
# Summary of the method: as §1
# [25] = target: Gal(b1-3)GlcNAc(b1-6)Gal(b1-4)GlcNAc
# Summary of the method: as §1
binder,measurement,setting,value
"SRS2 (Toxoplasma gondii), O15695 (protein) MATRASLARQKTGAACLAVLTASPSVVAAKPWKRWVGVSVILASAFAVGVSAGPPYRYEPEKFTCRPKKGILSQWVSLLYQVQHNITFACEEATPVPTTLISEEHGLMVCAENMTPEECEANPAPLSAFLPGATKEWVTGDSVLTGLKISVPESQYPANAKSFRVGCRHNTKTGNTCMLTIHVEPRDPAVERQEARCSYTENSTLPKIFVTKDSNTMTLACGPHGAPMPESYTENYCSTPDTCDEKPFTSVIPGYLSKWFFGDPKSPLGARVRIPPEQIPSSPQINYFGCTGPTEGEGPKYNCTVPVPLGGGDPSEGSRPGGGSGGGKRGGGQGGGGSLAGFDFRQGSARHSLPSRMALSASALLAMTALAY",glycan array binding signal (z-score),Gal(a1-3)Gal(b1-3)GlcNAc,0.384
same,glycan array binding signal (z-score),[1],0.538
same,glycan array binding signal (z-score),[2],0.688
same,glycan array binding signal (z-score),Gal(a1-3)Gal(b1-4)Glc,-0.428
same,glycan array binding signal (z-score),Gal(a1-3)Gal(b1-4)GlcNAc,0.159
same,glycan array binding signal (z-score),[3],-0.46
same,glycan array binding signal (z-score),[4],-0.99
same,glycan array binding signal (z-score),[5],-0.148
same,glycan array binding signal (z-score),Gal(a1-3)GalNAc,0.369
same,glycan array binding signal (z-score),[6],0.045
same,glycan array binding signal (z-score),[7],-0.744
same,glycan array binding signal (z-score),Gal(a1-4)Gal(b1-4)Glc,0.631
same,glycan array binding signal (z-score),Gal(a1-4)Gal(b1-4)GlcNAc,-0.049
same,glycan array binding signal (z-score),[8],-0.206
same,glycan array binding signal (z-score),[9],-0.291
same,glycan array binding signal (z-score),Gal(a1-4)GlcNAc,0.399
same,glycan array binding signal (z-score),Gal(a1-6)Glc,-0.257
same,glycan array binding signal (z-score),Gal(b1-2)Gal,0.077
same,glycan array binding signal (z-score),Gal(b1-3)Gal,-0.894
same,glycan array binding signal (z-score),Gal(b1-3)Gal(b1-4)GlcNAc,-1.45
same,glycan array binding signal (z-score),[10],0.158
same,glycan array binding signal (z-score),Gal(b1-3)GalNAc,-0.265
same,glycan array binding signal (z-score),[11],0.487
same,glycan array binding signal (z-score),[12],-0.437
same,glycan array binding signal (z-score),[13],0.365
same,glycan array binding signal (z-score),[14],0.16
same,glycan array binding signal (z-score),[15],-0.024
same,glycan array binding signal (z-score),Gal(b1-3)GlcNAc,-0.506
same,glycan array binding signal (z-score),[16],-0.133
same,glycan array binding signal (z-score),[17],-0.395
same,glycan array binding signal (z-score),[18],1.18
same,glycan array binding signal (z-score),[19],-0.3
same,glycan array binding signal (z-score),[20],0.39
same,glycan array binding signal (z-score),[21],-0.649
same,glycan array binding signal (z-score),[22],-0.73
same,glycan array binding signal (z-score),[23],-0.534
same,glycan array binding signal (z-score),[24],0.023
same,glycan array binding signal (z-score),[25],-1.15

# Quoted from the entries so far (2 entries):
binder,measurement,setting,value
"SRS2 (Toxoplasma gondii), O15695 (protein) MATRASLARQKTGAACLAVLTASPSVVAAKPWKRWVGVSVILASAFAVGVSAGPPYRYEPEKFTCRPKKGILSQWVSLLYQVQHNITFACEEATPVPTTLISEEHGLMVCAENMTPEECEANPAPLSAFLPGATKEWVTGDSVLTGLKISVPESQYPANAKSFRVGCRHNTKTGNTCMLTIHVEPRDPAVERQEARCSYTENSTLPKIFVTKDSNTMTLACGPHGAPMPESYTENYCSTPDTCDEKPFTSVIPGYLSKWFFGDPKSPLGARVRIPPEQIPSSPQINYFGCTGPTEGEGPKYNCTVPVPLGGGDPSEGSRPGGGSGGGKRGGGQGGGGSLAGFDFRQGSARHSLPSRMALSASALLAMTALAY",glycan array binding signal (z-score),[18],1.18
same,glycan array binding signal (z-score),[19],-0.3
